# According to PubChem BioAssay (EPA / NIEHS):
# The inconclusive results got no clear call from the source; some entries with a clear call stand among them for comparison. For part of these data: A potency beside an inconclusive call is a rough fit, not a confirmed value. The source made the active and inactive calls. Rule for the calls: active = hit-call score of the fitted dose curve at least 0.9, where 1 is the maximum; inconclusive = response in the unintended direction; inactive = score below 0.9.
# What was measured:
# [1] = ACEA_AR_agonist_AUC_viability: ACEA Biosciences xCELLigence Real-Time Cell Analysis on Androgen Receptor Agonism for Viability (AID 2283775);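 for AC50: viability read 80 hours after compound addition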
# Procedure, shortened: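 Read-out is area under the impedance curve at 80 h post-dose in 22Rv1 cells, with DMSO as baseline and signal loss taken as reduced viability. Compounds ran in duplicate from 100 uM final.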
# [2] = ACEA_AR_antagonist_AUC_viability: ACEA Biosciences xCELLigence Real-Time Cell Analysis on Androgen Receptor Antagonism for Viability (AID 2283776);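 note: 22Rv1 human prostate cancer cells growing on impedance electrode plates; area under impedance growth curve at 80 h after dosing as viability; hits lower the growth signal relative to DMSO meaning cytotoxicity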
# Procedure, shortened: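 Impedance read-out (RT-CES): area under growth curve at 80 h post-dose, loss of signal scored vs DMSO baseline. 22Rv1 cells; 8-pt 1:4 series, top 100 uM final, ≤0.5% DMSO; biological duplicate.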
# [3] = test system: zebrafish Estrogen Receptor (ESR2A), gene 317734; test: ATG_zfER2a_XSP1: Attagene TRANS-FACTORIAL Multi-Species (XSP1) HepG2 Assay for zebrafish Estrogen Receptor (ESR2A) (AID 2283778)
# Procedure, shortened: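 HepG2 cells transiently transfected with GAL4-UAS reporter units driven by a zebrafish ESR2A–Gal4 chimera; 24 h compound exposure with 3 nM 6-alpha-fluorotestosterone present. Reporter mRNA measured by RT-PCR with fluorescent capillary electrophoresis, fitted positive versus DMSO.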
smiles,measurement,setting,value
COC(=O)c1ccccc1O,AC50,[1],inconclusive: 13 µM
same,AC50,[2],inconclusive: 0.0217 µM
ClC1=C(Cl)C(Cl)(Cl)C(Cl)=C1Cl,AC50,[1],active: 74.8 µM
same,AC50,[2],active: 68 µM
CC(C)C1=CC2=CC[C@@H]3[C@](C)(CCC[C@@]3(C)C(=O)O)[C@H]2CC1,AC50,[1],inconclusive: 0.327 µM
same,AC50,[2],inconclusive: 4.21 µM
NC(=O)N1c2ccccc2C=Cc2ccccc21,AC50,[1],inconclusive: 0.0109 µM
same,AC50,[2],inconclusive: 0.000949 µM
CCCCCCCCCCCCS,AC50,[1],inconclusive: 24.2 µM
same,AC50,[2],inconclusive: 28.2 µM
CCCCOC(=O)CCCCCCCCC(=O)OCCCC,AC50,[1],inconclusive: 50 µM
same,AC50,[2],inconclusive: 0.0169 µM
CS(=O)(=O)OCCCCOS(C)(=O)=O,outcome,[2],inactive
CC[C@H](c1ccc(O)cc1)[C@@H](CC)c1ccc(O)cc1,AC50,[1],active: 10.7 µM
same,AC50,[3],active: 0.0552 nM
O=C1CN(N=Cc2ccc([N+](=O)[O-])o2)C(=O)N1,AC50,[1],inconclusive: 10.3 µM
same,AC50,[2],inconclusive: 10 µM
CC(C)NCC(O)COc1ccc(CC(N)=O)cc1 (centres undefined),AC50,[2],inconclusive: 31.1 µM
C[C@]12C=CC(=O)C=C1CC[C@H]1[C@@H]3C[C@@H](O)[C@](O)(C(=O)CO)[C@@]3(C)C[C@H](O)[C@@]12F,AC50,[1],inconclusive: 0.00061 µM
same,AC50,[2],inconclusive: 0.000797 µM
CC(CC=O)CCCC(C)(C)O (centres undefined),AC50,[1],inconclusive: 29.4 µM
same,AC50,[2],inconclusive: 16.6 µM
C=CC(C)CCCC(C)(C)O (centres undefined),outcome,[1],inactive
same,AC50,[2],inconclusive: 0.292 µM

# No new results follow: entries from further up.
smiles,measurement,setting,value
ClC1=C(Cl)C(Cl)(Cl)C(Cl)=C1Cl,AC50,[1],active: 74.8 µM
same,AC50,[2],active: 68 µM
